Here are results for three sequences from PMC6943663, “A Single-Turnover Kinetic Study of DNA Demethylation Catalyzed by Fe(II)/α-Ketoglutarate-Dependent Dioxygenase AlkB”.

Construct, isoform or probe ends are uncertain for at least one entry. For some of these results: A weaker result is weaker than the reference pair of the same experiment. Protein sequences can lack the tags named with them. For some of these results: At least one verdict was read from the data and is not stated in words by the source.

The target in series [1] is T1, AlkB (Escherichia coli) (UniProt P05050).
T1 sequence (looked up): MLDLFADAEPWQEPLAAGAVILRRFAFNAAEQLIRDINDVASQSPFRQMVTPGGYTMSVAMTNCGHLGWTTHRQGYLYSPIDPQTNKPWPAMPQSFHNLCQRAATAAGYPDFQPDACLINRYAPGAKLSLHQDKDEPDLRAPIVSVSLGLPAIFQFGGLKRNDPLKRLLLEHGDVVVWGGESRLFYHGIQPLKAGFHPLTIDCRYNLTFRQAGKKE
Briefly: stopped-flow Trp fluorescence; K1 one order of magnitude lower than for ssODN. The conditions noted are these: Fe(II), aKG; N1-methyladenine at position 6 of strand 1; 50 mM HEPES-KOH pH 7.5, 50 mM KCl, 10 mM MgCl2, 40 uM Fe(II), 1 mM aKG, 2 mM ascorbate (composition as given for the anaerobic runs); stopped-flow at 37 C; recombinant protein; residues 1-216; protein details: His6.

The target of series [2] is T1, AlkB (Escherichia coli). Nature of the series: Trp fluorescence equilibrium titration (micromolar range, value only in figure). The conditions noted are these: 40 uM Fe(II), 1 mM aKG, 50 mM HEPES-KOH pH 7.5, 50 mM KCl, 10 mM MgCl2, 40 uM Fe(II), 2 mM ascorbate (composition as given for the anaerobic runs), stopped-flow at 37 C, recombinant protein.
Series [3] has as its target T1, AlkB (Escherichia coli). Briefly: Trp fluorescence equilibrium titration (micromolar range, value only in figure; weakest). The conditions noted are these: 40 uM Fe(II), 1 mM aKG, 50 mM HEPES-KOH pH 7.5, 50 mM KCl, 10 mM MgCl2, 40 uM Fe(II), 2 mM ascorbate (composition as given for the anaerobic runs), stopped-flow at 37 C, recombinant protein, residues 1-216, protein details: His6.

As for “ACAGGATCCGGCATA (double strand) [ds15m1A]”, the binding result in the series with AlkB (Escherichia coli) [1] is on record as “binds more weakly”.

With ACAGGATCCGGCATA [ss15A], the binding result with AlkB (Escherichia coli) [2] (residues 1-216, protein details: His6, single-stranded DNA) was “binds”. On to ACAGGATCCGGCATA (double strand) [ds15A], for which the binding result with AlkB (Escherichia coli) [3] was “binds more weakly”; with AlkB (Escherichia coli) [2] (2 mM succinate, residues 1-216, protein details: His6), “binds”.
